Reference: article doi:10.1101/358655
Read-outs that look alike come from different tables or passages of the source. No constants are given. Whether binding was seen depends on the method and setting. For some of these results: In cells and extracts the contact can be indirect. Some entries that bind do so weakly or less than the wild type. For some of these results: Sequences can lack the tags named with a protein.

The chains behind the UniProt entries cited, without tags or fusion partners.
UniProt P34244, whole entry: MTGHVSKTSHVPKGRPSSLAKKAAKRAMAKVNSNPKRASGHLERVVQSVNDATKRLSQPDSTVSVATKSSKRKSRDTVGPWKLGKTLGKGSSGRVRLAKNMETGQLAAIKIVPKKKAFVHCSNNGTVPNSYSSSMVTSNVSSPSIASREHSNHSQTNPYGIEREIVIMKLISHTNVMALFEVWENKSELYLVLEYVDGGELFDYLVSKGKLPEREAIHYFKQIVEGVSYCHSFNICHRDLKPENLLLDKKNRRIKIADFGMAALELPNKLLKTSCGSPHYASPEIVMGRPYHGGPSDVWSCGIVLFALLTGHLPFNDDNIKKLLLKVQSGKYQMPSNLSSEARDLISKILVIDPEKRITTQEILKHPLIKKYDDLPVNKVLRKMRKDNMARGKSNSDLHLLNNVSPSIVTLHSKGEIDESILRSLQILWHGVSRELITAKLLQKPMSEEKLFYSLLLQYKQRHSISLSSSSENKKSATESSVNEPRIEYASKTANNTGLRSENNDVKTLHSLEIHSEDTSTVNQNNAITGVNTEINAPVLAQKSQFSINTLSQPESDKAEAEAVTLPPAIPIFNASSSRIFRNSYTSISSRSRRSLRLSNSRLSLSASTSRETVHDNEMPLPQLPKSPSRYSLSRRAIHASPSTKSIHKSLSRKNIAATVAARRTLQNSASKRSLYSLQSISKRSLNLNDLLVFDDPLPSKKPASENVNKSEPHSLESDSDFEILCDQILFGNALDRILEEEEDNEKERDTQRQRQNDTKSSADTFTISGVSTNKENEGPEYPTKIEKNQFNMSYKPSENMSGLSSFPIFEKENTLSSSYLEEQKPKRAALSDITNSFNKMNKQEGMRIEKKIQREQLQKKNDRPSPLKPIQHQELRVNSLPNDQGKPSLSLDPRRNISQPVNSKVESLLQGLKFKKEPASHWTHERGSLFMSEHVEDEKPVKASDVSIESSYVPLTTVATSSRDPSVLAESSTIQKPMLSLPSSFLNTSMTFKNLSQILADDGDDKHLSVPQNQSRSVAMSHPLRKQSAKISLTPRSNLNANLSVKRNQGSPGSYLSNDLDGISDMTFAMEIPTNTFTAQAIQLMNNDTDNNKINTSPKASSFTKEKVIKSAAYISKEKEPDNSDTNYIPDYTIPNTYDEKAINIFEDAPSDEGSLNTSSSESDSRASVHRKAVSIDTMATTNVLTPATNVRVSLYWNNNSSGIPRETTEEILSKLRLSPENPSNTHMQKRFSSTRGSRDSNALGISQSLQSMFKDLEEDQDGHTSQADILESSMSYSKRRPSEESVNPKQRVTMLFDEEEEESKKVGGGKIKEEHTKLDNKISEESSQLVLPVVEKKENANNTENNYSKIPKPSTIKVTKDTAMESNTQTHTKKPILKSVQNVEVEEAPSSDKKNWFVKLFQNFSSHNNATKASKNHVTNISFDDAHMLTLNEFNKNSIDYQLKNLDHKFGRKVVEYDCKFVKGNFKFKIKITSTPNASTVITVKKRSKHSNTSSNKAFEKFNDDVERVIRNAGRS

Key:
[1] = target: T1, His6-Cdh1 (recombinant, full-length, on beads) (S. cerevisiae) (UniProt P53197); assay: pull-down
T1 sequence: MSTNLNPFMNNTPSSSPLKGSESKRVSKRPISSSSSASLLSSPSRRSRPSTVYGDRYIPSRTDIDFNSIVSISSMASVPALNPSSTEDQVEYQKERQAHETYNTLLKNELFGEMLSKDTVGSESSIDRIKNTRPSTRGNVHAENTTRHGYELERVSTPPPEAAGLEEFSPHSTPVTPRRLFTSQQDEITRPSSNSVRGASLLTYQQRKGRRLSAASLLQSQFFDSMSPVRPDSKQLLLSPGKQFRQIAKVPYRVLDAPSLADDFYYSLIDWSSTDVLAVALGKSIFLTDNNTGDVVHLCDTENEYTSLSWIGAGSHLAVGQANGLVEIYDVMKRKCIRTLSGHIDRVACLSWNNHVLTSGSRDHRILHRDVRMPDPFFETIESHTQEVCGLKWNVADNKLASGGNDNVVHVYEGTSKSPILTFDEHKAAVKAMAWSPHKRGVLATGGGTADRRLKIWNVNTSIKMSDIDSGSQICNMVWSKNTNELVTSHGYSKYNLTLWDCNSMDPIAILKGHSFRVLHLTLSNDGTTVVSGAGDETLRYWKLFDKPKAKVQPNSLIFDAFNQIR

[2] = target: T1, His6-Cdh1 (recombinant, full-length, on beads) (S. cerevisiae); assay: pull-down; remark: listed apart in the source
[3] = target: T2, GST-Cdh1 (wild-type, full-length) (S. cerevisiae) (UniProt P53197); assay: pull-down
T2 sequence: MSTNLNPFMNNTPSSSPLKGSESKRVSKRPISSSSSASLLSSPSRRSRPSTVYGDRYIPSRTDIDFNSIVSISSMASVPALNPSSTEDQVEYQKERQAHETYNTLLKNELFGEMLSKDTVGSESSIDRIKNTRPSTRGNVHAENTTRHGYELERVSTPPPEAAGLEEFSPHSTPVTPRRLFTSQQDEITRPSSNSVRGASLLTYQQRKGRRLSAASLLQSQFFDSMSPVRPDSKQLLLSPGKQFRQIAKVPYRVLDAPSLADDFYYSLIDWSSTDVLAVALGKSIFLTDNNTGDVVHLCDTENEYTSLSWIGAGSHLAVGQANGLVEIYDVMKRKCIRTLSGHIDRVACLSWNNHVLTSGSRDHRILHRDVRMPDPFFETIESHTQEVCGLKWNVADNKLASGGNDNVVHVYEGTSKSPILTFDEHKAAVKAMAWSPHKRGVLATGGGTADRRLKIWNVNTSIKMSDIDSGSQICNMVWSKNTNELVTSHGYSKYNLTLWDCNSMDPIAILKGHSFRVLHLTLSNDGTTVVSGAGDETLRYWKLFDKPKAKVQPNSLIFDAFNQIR

[4] = target: T1, His6-Cdh1 (recombinant, full-length, on beads) (S. cerevisiae); assay: pull-down; remark: listed apart in the source
[5] = target: Cdh1 isolated from yeast extracts (S. cerevisiae) (UniProt P53197); assay: co-IP

In the case of “MBP-Hsl1 (recombinant) (from UniProt P34244 1-1518)”, the binding [1] is reported as “binds”.

B1: HA-Cdh1 full-length (amino acids 1-566) (protein, UniProt P53197 1-566)
chain: MSTNLNPFMNNTPSSSPLKGSESKRVSKRPISSSSSASLLSSPSRRSRPSTVYGDRYIPSRTDIDFNSIVSISSMASVPALNPSSTEDQVEYQKERQAHETYNTLLKNELFGEMLSKDTVGSESSIDRIKNTRPSTRGNVHAENTTRHGYELERVSTPPPEAAGLEEFSPHSTPVTPRRLFTSQQDEITRPSSNSVRGASLLTYQQRKGRRLSAASLLQSQFFDSMSPVRPDSKQLLLSPGKQFRQIAKVPYRVLDAPSLADDFYYSLIDWSSTDVLAVALGKSIFLTDNNTGDVVHLCDTENEYTSLSWIGAGSHLAVGQANGLVEIYDVMKRKCIRTLSGHIDRVACLSWNNHVLTSGSRDHRILHRDVRMPDPFFETIESHTQEVCGLKWNVADNKLASGGNDNVVHVYEGTSKSPILTFDEHKAAVKAMAWSPHKRGVLATGGGTADRRLKIWNVNTSIKMSDIDSGSQICNMVWSKNTNELVTSHGYSKYNLTLWDCNSMDPIAILKGHSFRVLHLTLSNDGTTVVSGAGDETLRYWKLFDKPKAKVQPNSLIFDAFNQIR
For B1, the binding [2] was “binds”, the binding [3] was “binds” and the binding [4] was “binds”.

B2: HA-Cdh1 fragment 1-300 aa (domain or fragment, UniProt P53197 1-300)
chain: MSTNLNPFMNNTPSSSPLKGSESKRVSKRPISSSSSASLLSSPSRRSRPSTVYGDRYIPSRTDIDFNSIVSISSMASVPALNPSSTEDQVEYQKERQAHETYNTLLKNELFGEMLSKDTVGSESSIDRIKNTRPSTRGNVHAENTTRHGYELERVSTPPPEAAGLEEFSPHSTPVTPRRLFTSQQDEITRPSSNSVRGASLLTYQQRKGRRLSAASLLQSQFFDSMSPVRPDSKQLLLSPGKQFRQIAKVPYRVLDAPSLADDFYYSLIDWSSTDVLAVALGKSIFLTDNNTGDVVHLCD
B2 was tested, and the binding [2] was “binds”.

B3: Cdh1 isolated from yeast extracts (protein, UniProt P53197 1-566)
chain: MSTNLNPFMNNTPSSSPLKGSESKRVSKRPISSSSSASLLSSPSRRSRPSTVYGDRYIPSRTDIDFNSIVSISSMASVPALNPSSTEDQVEYQKERQAHETYNTLLKNELFGEMLSKDTVGSESSIDRIKNTRPSTRGNVHAENTTRHGYELERVSTPPPEAAGLEEFSPHSTPVTPRRLFTSQQDEITRPSSNSVRGASLLTYQQRKGRRLSAASLLQSQFFDSMSPVRPDSKQLLLSPGKQFRQIAKVPYRVLDAPSLADDFYYSLIDWSSTDVLAVALGKSIFLTDNNTGDVVHLCDTENEYTSLSWIGAGSHLAVGQANGLVEIYDVMKRKCIRTLSGHIDRVACLSWNNHVLTSGSRDHRILHRDVRMPDPFFETIESHTQEVCGLKWNVADNKLASGGNDNVVHVYEGTSKSPILTFDEHKAAVKAMAWSPHKRGVLATGGGTADRRLKIWNVNTSIKMSDIDSGSQICNMVWSKNTNELVTSHGYSKYNLTLWDCNSMDPIAILKGHSFRVLHLTLSNDGTTVVSGAGDETLRYWKLFDKPKAKVQPNSLIFDAFNQIR
In the case of B3, the binding [5] is reported as “binds”.

B4: HA-Cdh1 fragment 1-280 aa (domain or fragment, UniProt P53197 1-280)
chain: MSTNLNPFMNNTPSSSPLKGSESKRVSKRPISSSSSASLLSSPSRRSRPSTVYGDRYIPSRTDIDFNSIVSISSMASVPALNPSSTEDQVEYQKERQAHETYNTLLKNELFGEMLSKDTVGSESSIDRIKNTRPSTRGNVHAENTTRHGYELERVSTPPPEAAGLEEFSPHSTPVTPRRLFTSQQDEITRPSSNSVRGASLLTYQQRKGRRLSAASLLQSQFFDSMSPVRPDSKQLLLSPGKQFRQIAKVPYRVLDAPSLADDFYYSLIDWSSTDVLAVA
B4 was tested, and the binding [2] was “no binding”.
